# Data from patent US20170283486A1 (UNIVERSITY OF MARYLAND BALTIMORE, published 2017).
# Biological target: mAb N60-i3
# Experiment: cell-based or functional assay
binder,measurement,value
"inner domain immunogen ID2 (designed binder, engineered C65-C115 disulfide bond (HXBc2 numbering); 8 cysteines forming four disulfide bonds) VPVWKDADTTLFCASDAKAHETECHNVWATHACVPTDPNPQEIHLENVTENFNMWKNNMVEQMQEDVISLWDQCLQPGGAPKISFDPIPIHYCTPAGYVILKCNDKNFNGTGPCKNVSSVQCTHGIKPVVSSGGGNIKDNWRSELYKYKVVQIE",IC50 (read off the curve),~0.2 nM
